Reference: US20010018195A1
These are yes or no findings as the source states them, for the method shown. Binding seen in cells or lysates may run through a third protein. Some results given as binding are weak or reduced against the parent protein; the word gives no strength.

Protein sequences, listed by entry. Tags and fused reporters are not part of them.
UniProt P55211: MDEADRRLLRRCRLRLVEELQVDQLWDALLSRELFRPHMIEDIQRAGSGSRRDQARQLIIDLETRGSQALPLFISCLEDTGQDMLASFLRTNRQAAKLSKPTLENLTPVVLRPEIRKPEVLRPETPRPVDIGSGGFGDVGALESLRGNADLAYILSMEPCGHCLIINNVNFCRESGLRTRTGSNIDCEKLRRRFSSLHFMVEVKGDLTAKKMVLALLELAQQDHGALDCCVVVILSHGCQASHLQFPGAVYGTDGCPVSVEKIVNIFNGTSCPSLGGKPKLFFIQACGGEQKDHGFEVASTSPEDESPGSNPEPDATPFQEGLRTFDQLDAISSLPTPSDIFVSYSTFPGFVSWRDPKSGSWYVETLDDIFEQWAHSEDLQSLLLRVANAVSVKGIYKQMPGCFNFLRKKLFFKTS
UniProt Q13489: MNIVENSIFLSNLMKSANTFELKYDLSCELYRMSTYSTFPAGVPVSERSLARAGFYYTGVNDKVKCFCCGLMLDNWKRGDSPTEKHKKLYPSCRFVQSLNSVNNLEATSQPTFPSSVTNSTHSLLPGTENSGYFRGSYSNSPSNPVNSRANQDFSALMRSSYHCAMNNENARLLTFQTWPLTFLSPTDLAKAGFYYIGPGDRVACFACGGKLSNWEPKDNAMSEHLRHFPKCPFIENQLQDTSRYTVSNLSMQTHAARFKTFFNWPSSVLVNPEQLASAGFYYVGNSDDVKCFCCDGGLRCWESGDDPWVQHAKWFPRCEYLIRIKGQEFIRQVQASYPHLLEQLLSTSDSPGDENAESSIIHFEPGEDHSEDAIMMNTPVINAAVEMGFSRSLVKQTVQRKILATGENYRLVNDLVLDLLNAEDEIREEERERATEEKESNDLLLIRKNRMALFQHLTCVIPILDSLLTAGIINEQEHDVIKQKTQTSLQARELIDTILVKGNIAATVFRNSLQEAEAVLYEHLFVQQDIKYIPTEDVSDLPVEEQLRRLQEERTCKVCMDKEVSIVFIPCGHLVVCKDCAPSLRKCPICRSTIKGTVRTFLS

Molecular target: in vitro translated 35S-labeled pro-caspase-9 (UniProt P55211)
Experiment: GST pull-down of in vitro translated 35S-pro-caspase-9, SDS-PAGE and autoradiography

binding: binds
Substance: GST-c-IAP-2 (from UniProt Q13489 1-604)
